At least one compound was matched to its structure with a doubt left.
System: immune checkpoint inhibitor-related colitis
Experiment: Immunosuppressive drug treatment of the patient's colitis episodes before ECP
Assay type: in vivo, human
Settings: increased dose of methylprednisolone and a second dose of infliximab
Experimental: A patient was treated with ipilimumab and nivolumab for metastatic melanoma. […] Colitis was diagnosed based on macroscopic mucosal ulcerations and intraepithelial apoptosis and crypt loss identified in the biopsy (FIG. 1a,b). While dermatitis, thyroiditis and hepatitis resolved after stopping ipilimumab/nivolumab and corticosteroid treatment, the patient experienced three colitis episodes within the next 20 weeks (CTC-AE II-III°). These were treated with corticosteroids (in total 23 weeks prior to ECP), infliximab (2 single doses 18 and 15 weeks prior to ECP) and cyclosporine (14 weeks prior to ECP, FIG. 1a and Table 1).
The patient had their first episode of colitis 20 weeks prior to the start of ECP. At that time point they had been treated for 3 weeks with steroids for their previous immune checkpoint inhibitor-related hepatitis, thyroiditis and dermatitis. The colitis occurred during tapering of the steroids. Therefore, the steroid dose was increased and due to an insufficient response, infliximab 5 mg/kg BW was administered once. […] Upon steroid tapering, the patient experienced their second episode of colitis, 16 weeks prior to begin of ECP. They were treated with an increased dose of methylprednisolone and a second dose of infliximab. The diarrhea was refractory to this therapy and consequently cyclosporine A was added. […] Here, ECP treatment was initiated. […]

In the case of C[C@H]1C[C@@H]2[C@H]([C@@H](O)C[C@@]3(C)[C@H]2CC[C@]3(O)C(=O)CO)[C@@]2(C)C=CC(=O)C=C12 [methylprednisolone], the “diarrhea, second episode” value is reported as “refractory”.
